Consider one sequence from publication PMC7672459, “Detection of genomic G-quadruplexes in living cells using a small artificial protein”.

For this data set, the system named is nucleolin (NCL). The data set is described as follows: EMSA. The conditions noted are these: 0.2 uM NCL, 20 nM DNA, complex then fixed; EMSA: 20 mM Tris-HCl pH 7.4, 75 mM KCl, 1 mM EDTA, 0.4 mg/ml BSA, 10 nM DNA, 4 C (or 37 C), 1 h; dsDNA with 30% PEG 200; recombinant protein; label: 5' FAM; folded or branched DNA. For orientation: Mobility shift assays separate free from complexed probe on a gel.

Construct, isoform or probe ends are uncertain for at least one entry. At least one verdict rests on a figure or table, not on a statement of the authors.

On to AGGGCGGTGTGGGAAGAGGGAAGAGGGGGAGG [KRAS], for which the binding result is reported as “binds”.
